Test [1] deals with T1, Flag-tagged n-SREBP1 (UniProt P36956).
T1 sequence (looked up): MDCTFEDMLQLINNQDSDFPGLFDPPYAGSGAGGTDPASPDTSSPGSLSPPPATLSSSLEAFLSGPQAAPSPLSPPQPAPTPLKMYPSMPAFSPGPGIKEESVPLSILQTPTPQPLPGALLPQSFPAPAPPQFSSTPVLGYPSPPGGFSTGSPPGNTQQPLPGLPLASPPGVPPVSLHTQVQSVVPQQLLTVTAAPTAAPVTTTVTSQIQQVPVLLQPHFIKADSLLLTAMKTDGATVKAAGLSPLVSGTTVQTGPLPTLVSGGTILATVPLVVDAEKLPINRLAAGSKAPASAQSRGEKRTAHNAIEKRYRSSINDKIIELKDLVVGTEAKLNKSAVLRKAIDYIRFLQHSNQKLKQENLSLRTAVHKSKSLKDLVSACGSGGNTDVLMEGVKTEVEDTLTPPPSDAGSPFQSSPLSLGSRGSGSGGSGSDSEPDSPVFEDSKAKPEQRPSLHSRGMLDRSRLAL
The test is described as follows: co-immunoprecipitation of V5-tagged SPTBN1 fragments with Flag-tagged n-SREBP1.

Chains of the proteins cited; added tags and fusions are not shown. Lines headed by an entry give the natural chain unless they say otherwise; changes in a name come on top.
UniProt Q01082: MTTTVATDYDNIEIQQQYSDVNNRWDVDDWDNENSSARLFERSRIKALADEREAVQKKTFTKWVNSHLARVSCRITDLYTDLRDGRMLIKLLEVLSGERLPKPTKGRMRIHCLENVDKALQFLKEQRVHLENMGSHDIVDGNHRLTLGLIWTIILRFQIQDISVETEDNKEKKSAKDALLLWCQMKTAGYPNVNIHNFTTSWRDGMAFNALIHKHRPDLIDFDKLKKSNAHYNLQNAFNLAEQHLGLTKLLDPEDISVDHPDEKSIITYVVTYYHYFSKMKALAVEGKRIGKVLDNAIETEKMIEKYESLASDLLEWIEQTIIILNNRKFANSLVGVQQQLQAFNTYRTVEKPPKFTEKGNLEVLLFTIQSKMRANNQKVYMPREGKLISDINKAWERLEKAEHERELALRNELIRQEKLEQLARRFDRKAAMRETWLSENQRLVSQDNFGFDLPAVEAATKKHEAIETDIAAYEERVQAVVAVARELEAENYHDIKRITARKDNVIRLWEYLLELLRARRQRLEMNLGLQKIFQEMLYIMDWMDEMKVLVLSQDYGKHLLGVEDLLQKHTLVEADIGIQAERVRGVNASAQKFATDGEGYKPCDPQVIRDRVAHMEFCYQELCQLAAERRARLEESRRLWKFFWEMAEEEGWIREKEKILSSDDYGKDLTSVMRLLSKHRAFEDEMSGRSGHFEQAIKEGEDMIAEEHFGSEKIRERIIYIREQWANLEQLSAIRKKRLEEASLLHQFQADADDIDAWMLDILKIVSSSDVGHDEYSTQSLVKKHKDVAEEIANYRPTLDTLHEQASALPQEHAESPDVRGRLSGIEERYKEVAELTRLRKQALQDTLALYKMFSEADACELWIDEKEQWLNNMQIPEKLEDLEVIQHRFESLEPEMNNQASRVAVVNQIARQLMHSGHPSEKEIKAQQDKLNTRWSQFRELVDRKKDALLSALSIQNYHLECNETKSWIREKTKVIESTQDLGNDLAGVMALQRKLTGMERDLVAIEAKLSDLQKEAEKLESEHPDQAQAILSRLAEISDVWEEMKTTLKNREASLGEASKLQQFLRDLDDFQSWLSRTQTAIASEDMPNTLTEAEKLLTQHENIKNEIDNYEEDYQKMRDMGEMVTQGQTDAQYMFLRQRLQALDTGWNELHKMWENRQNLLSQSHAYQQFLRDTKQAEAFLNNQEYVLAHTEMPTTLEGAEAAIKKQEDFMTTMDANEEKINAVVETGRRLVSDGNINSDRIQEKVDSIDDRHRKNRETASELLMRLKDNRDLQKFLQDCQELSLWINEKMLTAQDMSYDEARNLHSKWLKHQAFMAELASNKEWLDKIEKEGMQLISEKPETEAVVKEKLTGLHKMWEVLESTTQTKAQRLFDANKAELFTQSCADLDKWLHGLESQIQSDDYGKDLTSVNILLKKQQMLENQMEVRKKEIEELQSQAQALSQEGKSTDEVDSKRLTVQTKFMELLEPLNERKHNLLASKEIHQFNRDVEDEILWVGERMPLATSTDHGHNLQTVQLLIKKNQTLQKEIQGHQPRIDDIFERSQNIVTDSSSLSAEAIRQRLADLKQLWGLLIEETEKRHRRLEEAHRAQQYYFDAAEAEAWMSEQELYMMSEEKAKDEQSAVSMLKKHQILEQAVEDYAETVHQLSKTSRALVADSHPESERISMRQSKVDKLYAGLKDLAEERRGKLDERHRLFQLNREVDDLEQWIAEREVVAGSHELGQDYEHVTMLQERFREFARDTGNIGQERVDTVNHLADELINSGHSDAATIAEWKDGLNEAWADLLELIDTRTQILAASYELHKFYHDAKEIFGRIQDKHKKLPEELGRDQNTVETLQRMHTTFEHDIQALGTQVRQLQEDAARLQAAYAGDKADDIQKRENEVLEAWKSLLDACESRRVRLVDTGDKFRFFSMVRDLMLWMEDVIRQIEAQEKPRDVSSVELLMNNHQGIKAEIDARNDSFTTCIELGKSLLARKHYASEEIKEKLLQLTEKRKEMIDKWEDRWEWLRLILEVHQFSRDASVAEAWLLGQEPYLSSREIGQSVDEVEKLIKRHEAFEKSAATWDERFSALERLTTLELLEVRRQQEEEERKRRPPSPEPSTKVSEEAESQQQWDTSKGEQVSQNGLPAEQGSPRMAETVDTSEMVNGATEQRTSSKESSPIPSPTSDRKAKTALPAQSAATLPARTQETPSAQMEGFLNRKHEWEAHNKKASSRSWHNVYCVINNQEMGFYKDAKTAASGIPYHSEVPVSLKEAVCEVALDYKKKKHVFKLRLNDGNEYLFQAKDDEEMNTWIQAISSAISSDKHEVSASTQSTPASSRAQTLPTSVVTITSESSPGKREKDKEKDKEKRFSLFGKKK

Test [2] has as its target T2, pre-SREBP1 (human) (UniProt P36956).
T2 sequence (looked up): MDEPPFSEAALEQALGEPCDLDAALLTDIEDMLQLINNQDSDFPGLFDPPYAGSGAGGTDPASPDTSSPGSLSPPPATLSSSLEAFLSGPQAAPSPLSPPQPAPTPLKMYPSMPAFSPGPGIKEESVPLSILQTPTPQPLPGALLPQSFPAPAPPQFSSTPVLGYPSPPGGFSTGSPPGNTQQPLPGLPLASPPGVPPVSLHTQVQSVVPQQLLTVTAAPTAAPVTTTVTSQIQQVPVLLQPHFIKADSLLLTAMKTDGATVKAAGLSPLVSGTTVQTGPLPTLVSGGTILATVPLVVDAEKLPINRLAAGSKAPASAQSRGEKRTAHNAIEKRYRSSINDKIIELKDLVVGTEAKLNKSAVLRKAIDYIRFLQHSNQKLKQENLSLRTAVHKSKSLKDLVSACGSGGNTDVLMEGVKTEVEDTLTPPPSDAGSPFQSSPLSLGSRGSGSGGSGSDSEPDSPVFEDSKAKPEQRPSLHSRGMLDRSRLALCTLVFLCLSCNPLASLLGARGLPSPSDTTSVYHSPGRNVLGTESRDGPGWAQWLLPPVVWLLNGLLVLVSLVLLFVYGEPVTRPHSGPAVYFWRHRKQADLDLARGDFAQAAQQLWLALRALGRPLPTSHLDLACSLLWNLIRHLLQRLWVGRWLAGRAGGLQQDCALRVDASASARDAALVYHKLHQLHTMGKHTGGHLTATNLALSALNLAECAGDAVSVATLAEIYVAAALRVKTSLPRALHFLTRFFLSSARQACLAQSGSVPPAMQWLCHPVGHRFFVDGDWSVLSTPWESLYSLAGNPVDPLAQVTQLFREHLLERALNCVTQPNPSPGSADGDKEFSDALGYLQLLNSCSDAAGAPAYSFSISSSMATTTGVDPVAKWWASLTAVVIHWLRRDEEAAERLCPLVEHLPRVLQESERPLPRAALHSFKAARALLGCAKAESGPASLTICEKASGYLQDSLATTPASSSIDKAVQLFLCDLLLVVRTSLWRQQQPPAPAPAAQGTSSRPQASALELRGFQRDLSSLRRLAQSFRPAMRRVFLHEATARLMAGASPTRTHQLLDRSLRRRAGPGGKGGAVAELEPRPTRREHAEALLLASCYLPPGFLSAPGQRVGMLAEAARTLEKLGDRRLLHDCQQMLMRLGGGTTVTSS
Put plainly: co-immunoprecipitation from Huh7 cells exposed to palmitic acid.

For test [3], the target named is T2, pre-SREBP1 (human). The test is described as follows: immunoprecipitation of endogenous SPTBN1 from 3 HCC cell lines, immunoblot; the interaction with pre-SREBP1 occurs in the cytoplasm. For orientation: In western blotting, separated proteins are transferred to a membrane and probed.
Test [4] addresses T3, n-SREBP1 (human) (UniProt P36956).
T3 sequence (looked up): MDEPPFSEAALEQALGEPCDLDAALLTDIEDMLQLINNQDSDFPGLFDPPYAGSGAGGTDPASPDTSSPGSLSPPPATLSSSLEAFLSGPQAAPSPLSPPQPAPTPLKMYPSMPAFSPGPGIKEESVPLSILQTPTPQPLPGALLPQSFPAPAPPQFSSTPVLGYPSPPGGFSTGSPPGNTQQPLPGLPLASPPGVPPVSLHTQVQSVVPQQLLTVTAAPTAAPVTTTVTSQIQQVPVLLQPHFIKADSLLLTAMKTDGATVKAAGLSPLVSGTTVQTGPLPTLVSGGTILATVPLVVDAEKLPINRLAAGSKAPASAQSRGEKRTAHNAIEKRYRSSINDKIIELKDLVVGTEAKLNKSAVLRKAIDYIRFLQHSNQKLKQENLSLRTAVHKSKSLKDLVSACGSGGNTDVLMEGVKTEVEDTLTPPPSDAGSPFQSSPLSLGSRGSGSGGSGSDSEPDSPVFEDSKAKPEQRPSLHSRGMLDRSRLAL
The test is described as follows: immunoprecipitation of endogenous SPTBN1 from 3 HCC cell lines, immunoblot.

For test [5], the target named is T4, Fragment 2 of SREBP1 (UniProt P36956).
T4 sequence (looked up): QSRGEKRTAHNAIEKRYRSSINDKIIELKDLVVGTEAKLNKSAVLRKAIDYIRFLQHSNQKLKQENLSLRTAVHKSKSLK
Put plainly: co-immunoprecipitation of SREBP1 fragments with full-length V5-tagged SPTBN1.

No constants are given. Whether binding was seen depends on the method and setting. For part of these data: Binding seen in cells or lysates may run through a third protein. Some binding calls cover weakened binding; strength is not graded here. For part of these data: Tags and fused reporters may be left off the sequences shown.

As for “N-SPTBN1 (amino acids M1-D1454) tagged with V5 (from UniProt Q01082 1-1454)”, in test [1], the binding entry is listed as “binds”.
With N-SPTBN1 (from UniProt Q01082 1-1454), the binding entry in test [2] was “binds”.
Turning to SPTBN1 (from UniProt Q01082 2-2364), the binding entry in test [3], in test [4] and in test [2] was “binds” throughout.
“full-length V5-tagged SPTBN1 (from UniProt Q01082 1-2364)”: the binding result in test [5] is reported as “binds”.

For the origin of these results see patent US20230416739A1.
